These results are taken from PubChem BioAssay AID248 (DTP/NCI, 2004).

This test concerns L1210 leukemia ip in BDF1 mice, survival T/C. Nature of the test: NCI In Vivo Anticancer Drug Screen. Data for tumor model L1210 Leukemia (intraperitoneal) in B6D2F1 (BDF1) mice. As to conditions: T/C endpoint: mean survival time, higher T/C = longer survival.
[1] abbreviates: dose: 400.0 mg/kg/injection, schedule: Q04DX003 (ip), vehicle: saline with Tween-80.

The list is a part of this screen's results and no random one: it gathers tests that were run many times, whatever their T/C, doses with no T/C, and many T/C values between a quarter and a half above the control. Further doses and runs are listed elsewhere. T/C is the treated group as % of the vehicle group. Some entries give survivors of the animals treated and no T/C: the source holds a T/C of zero for them, seemingly a mark for toxic or unscored doses. Some survivor counts are full or nearly so, which does not show that the dose was tolerated: survival well below the control is almost never listed, so the zero probably covers shortened survival too. Counts of survivors are from the toxicity check (mostly the fifth day) where no day follows; animals may have died later. Schedules are NCI's codes, taken here to give the interval after Q, in days (D) or hours (H), and the number of doses after X. Brackets with × say how often a value occurs here. Some entries were tested several times; their values stand side by side, smallest first. Some schedule codes hold Z or #, which are not explained here. Where survival is the endpoint, this PubChem deposit counts one and a half times the control or more as active, and values a quarter to a half above the control carry no call in these data; other NCI protocols may use other cut-offs. Some T/C values are followed by the survivors on the day toxicity was checked, most often the fifth; without a count, all were alive then.

For `Oc1ccc(CCCc2ccc3c(c2)OCO3)cc1`, the survivor count (dose: 400.0 mg/kg/injection, schedule: Q04DX002 (ip), vehicle: saline with Tween-80) is on record as 1 of 3.

`C=CC[Se]c1ncnc2c1c(C#N)cn2C1OC(CO)C(O)C1O` (stereo not drawn): the survivor count (dose: 100.0 mg/kg/injection, schedule: Q01DX005 (ip), vehicle: saline) is given as 0 of 6 and the survivor count (dose: 200.0 mg/kg/injection, schedule: Q01DX005 (ip), vehicle: saline) is given as 0 of 6.

Consider `C=CC[Si](C)(C)N1CC1`, for which the survivor count (dose: 25.0 mg/kg/injection, schedule: Q01DX001 (ip), vehicle: carboxymethylcellulose (CMC)) was 2 of 4; the survivor count (dose: 50.0 mg/kg/injection, schedule: Q01DX001 (ip), vehicle: carboxymethylcellulose (CMC)) is on record as 2 of 4; the survivor count (dose: 100.0 mg/kg/injection, schedule: Q01DX001 (ip), vehicle: carboxymethylcellulose (CMC)) was 0 of 4; the survivor count (dose: 200.0 mg/kg/injection, schedule: Q01DX001 (ip), vehicle: carboxymethylcellulose (CMC)) is recorded as 0 of 4; the survivor count (dose: 400.0 mg/kg/injection, schedule: Q01DX001 (ip), vehicle: carboxymethylcellulose (CMC)) is reported as 0 of 4.

`OCCN1CC1`: the T/C (dose: 1.56 mg/kg/injection, schedule: Q01DX009 (ip), vehicle: saline) is 135 % of control.

`O=C(Nc1cccc(NC(=O)Nc2cccc(C3=NCCN3)c2)c1)Nc1cccc(C2=NCCN2)c1`: the T/C by setting is: (dose: 25.0 mg/kg/injection, schedule: Q01DX Z (ip), vehicle: carboxymethylcellulose (CMC)) 140 % of control; (dose: 40.0 mg/kg/injection, schedule: Q01DX Z (ip), vehicle: carboxymethylcellulose (CMC)) 134 % of control; (dose: 55.5 mg/kg/injection, schedule: Q01DX Z (ip), vehicle: carboxymethylcellulose (CMC)) 126 % of control; (dose: 90.0 mg/kg/injection, schedule: Q01DX Z (ip), vehicle: carboxymethylcellulose (CMC)) 128 % of control. For the same compound, the survivor count (dose: 135.0 mg/kg/injection, schedule: Q01DX Z (ip), vehicle: saline) is listed as 2 of 6.

In the case of `Nc1nc(N)c2cc(CNc3ccc(C(=O)NC(CC(=O)O)C(=O)O)cc3)ccc2n1` (stereo not drawn), the T/C is 126 % of control (dose: 0.25 mg/kg/injection, schedule: Q01DX009 (ip), vehicle: saline); 132, 140 [5 of 6 alive], 145 % of control (dose: 0.28 mg/kg/injection, schedule: Q01DX009 (ip), vehicle: saline); 145 % of control (dose: 0.5 mg/kg/injection, schedule: Q01DX009 (ip), vehicle: saline); 147 % of control (dose: 0.56 mg/kg/injection, schedule: Q01DX009 (ip), vehicle: saline); 136 % of control (dose: 1.0 mg/kg/injection, schedule: Q01DX005 (iv), vehicle: saline); 128 % of control (dose: 1.0 mg/kg/injection, schedule: Q## X003 (ip), vehicle: saline). For the same compound, the T/C is, setting by setting: (dose: 1.0 mg/kg/injection, schedule: Q## X024 (ip), vehicle: saline) 140 % of control; (dose: 2.0 mg/kg/injection, schedule: Q01DX005 (iv), vehicle: saline) 146 % of control; (dose: 2.0 mg/kg/injection, schedule: Q03HX016 (ip), vehicle: saline) 134 % of control; (dose: 2.0 mg/kg/injection, schedule: Q## X003 (ip), vehicle: saline) 132 % of control; (dose: 2.5 mg/kg/injection, schedule: Q01DX009 (ip), vehicle: saline) 128 % of control; (dose: 4.0 mg/kg/injection, schedule: Q01DX005 (iv), vehicle: saline) 134 % of control. The T/C reads like this: (dose: 4.0 mg/kg/injection, schedule: Q03HX016 (ip), vehicle: saline) 146 % of control; (dose: 4.0 mg/kg/injection, schedule: Q08DX002 (ip), vehicle: saline) 127 % of control; (dose: 4.0 mg/kg/injection, schedule: Q## X008 (ip), vehicle: saline) 129 % of control [9 of 10 alive]; (dose: 5.0 mg/kg/injection, schedule: Q01DX001 (ip), vehicle: saline) 134 % of control; (dose: 6.25 mg/kg/injection, schedule: Q01DX001 (ip), vehicle: saline) 132 % of control; (dose: 8.0 mg/kg/injection, schedule: Q01DX001 (sc), vehicle: saline) 132 % of control. Also, the T/C was 141 % of control (dose: 8.0 mg/kg/injection, schedule: Q08DX002 (ip), vehicle: saline); 134 % of control (dose: 8.0 mg/kg/injection, schedule: Q## X008 (ip), vehicle: saline); 147 % of control (dose: 10.0 mg/kg/injection, schedule: Q01DX001 (ip), vehicle: saline); 137 % of control (dose: 12.5 mg/kg/injection, schedule: Q01DX001 (ip), vehicle: saline); 145 % of control (dose: 16.0 mg/kg/injection, schedule: Q01DX001 (ip), vehicle: saline); 137 % of control (dose: 16.0 mg/kg/injection, schedule: Q01DX001 (sc), vehicle: saline). In addition, the T/C reads like this: (dose: 16.0 mg/kg/injection, schedule: Q## X003 (ip), vehicle: saline) 130 % of control; (dose: 16.0 mg/kg/injection, schedule: Q## X008 (ip), vehicle: saline) 147 % of control; (dose: 25.0 mg/kg/injection, schedule: Q01DX001 (ip), vehicle: saline) 147 % of control; (dose: 32.0 mg/kg/injection, schedule: Q01DX001 (sc), vehicle: saline) 134 % of control. Also, the survivor count is, setting by setting: (dose: 4.0 mg/kg/injection, schedule: Q01DX009 (ip), vehicle: saline) 8 of 10; (dose: 8.0 mg/kg/injection, schedule: Q01DX005 (iv), vehicle: saline) 9 of 10; (dose: 10.0 mg/kg/injection, schedule: Q01DX009 (ip), vehicle: saline) 5 of 6; (dose: 18.0 mg/kg/injection, schedule: Q01DX009 (ip), vehicle: saline) 5 of 6 and 6 of 6; (dose: 20.0 mg/kg/injection, schedule: Q01DX009 (ip), vehicle: saline) 4 of 6; (dose: 40.0 mg/kg/injection, schedule: Q01DX001 (ip), vehicle: saline) 3 of 4. For the same compound, the survivor count is recorded as 6 of 6 (dose: 50.0 mg/kg/injection, schedule: Q01DX001 (ip), vehicle: saline); 3 of 4 (dose: 80.0 mg/kg/injection, schedule: Q01DX001 (ip), vehicle: saline); 4 of 6 (dose: 100.0 mg/kg/injection, schedule: Q01DX001 (ip), vehicle: saline); 3 of 6 (dose: 200.0 mg/kg/injection, schedule: Q01DX001 (ip), vehicle: saline); 3 of 6 (dose: 400.0 mg/kg/injection, schedule: Q01DX001 (ip), vehicle: saline).

Turning to `O=C(Nc1cccc(C(F)(F)F)c1)Nc1ncccn1`, for the setting “dose: 200.0 mg/kg/injection, schedule: Q01DX009 (ip), vehicle: Klucel (hydroxypropylcellulose) (HPC)”, the survivor count is 6 of 6 (2×).

Turning to `CCCCCC(C)NCCOC(=O)c1ccc(N)cc1` (stereo not drawn), the survivor count by setting is: (dose: 150.0 mg/kg/injection, schedule: Q01DX001 (ip), vehicle: other) 0 of 6; (dose: 300.0 mg/kg/injection, schedule: Q01DX001 (ip), vehicle: other) 0 of 6.

Turning to `Cc1c(Cl)nc(Cl)nc1Cl`, under “dose: 300.0 mg/kg/injection, schedule: Q01DX015 (ip), vehicle: carboxymethylcellulose (CMC)”, the survivor count is given as 4 of 6.

On to `O=C(C[n+]1ccccc1)N/N=C/c1ccc(O)c(O)c1`, for which the survivor count under setting [1] is reported as 0 of 6.

As to `CCCCCCCCCCCCCCCCCC(=O)C(C)(C)C`, the survivor count (dose: 100.0 mg/kg/injection, schedule: Q01DX001 (ip), vehicle: Klucel (hydroxypropylcellulose) (HPC)) is 3 of 3.

On to `Clc1nc(Cl)n2c(Cl)cncc12`, for which the survivor count reads like this: (dose: 100.0 mg/kg/injection, schedule: Q04DX003 (ip), vehicle: saline with Tween-80) 4 of 6; (dose: 200.0 mg/kg/injection, schedule: Q04DX003 (ip), vehicle: saline with Tween-80) 0 of 6; under setting [1], 0 of 6.

As to `CCN1C(=O)CSC1=S`, under “dose: 400.0 mg/kg/injection, schedule: Q04DX003 (ip), vehicle: other”, the T/C is 130 % of control.
